Experimental findings from doi:10.1101/634816 are described below.

Protein sequences, listed by entry. Tags and fused reporters are not part of them. Residues count along the entry.
UniProt P93024, 1-390: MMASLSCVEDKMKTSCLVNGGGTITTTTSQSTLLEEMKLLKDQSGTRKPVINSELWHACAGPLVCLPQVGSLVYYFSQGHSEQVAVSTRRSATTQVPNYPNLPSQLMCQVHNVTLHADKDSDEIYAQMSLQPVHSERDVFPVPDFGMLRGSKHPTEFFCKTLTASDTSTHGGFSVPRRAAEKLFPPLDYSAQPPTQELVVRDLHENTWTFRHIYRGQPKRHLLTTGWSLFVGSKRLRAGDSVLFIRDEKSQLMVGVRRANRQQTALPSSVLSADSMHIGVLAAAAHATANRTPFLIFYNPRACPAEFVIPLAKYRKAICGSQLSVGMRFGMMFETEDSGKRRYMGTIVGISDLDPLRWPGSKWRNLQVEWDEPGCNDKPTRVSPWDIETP

A weaker result is weaker than the reference pair of the same experiment.

The data set concerns the target AtARF5-DBD (Arabidopsis thaliana) (UniProt P93024). Put plainly: Ni-NTA pull-down with SYBR Gold fluorescence. The conditions noted are these: residues 1-390.

“CCGGTAGGTTGTCATCCAAAGGATGACAACCGGTAGG (double strand) [ER7-AT]”: the binding result (lowest binding of the variants) is reported as “binds more weakly”.
As to “CCGGTAGGTTGTCAACCAAAGGGAGACAACCGGTAGG (double strand) [ER7-1m (ER7-single motif)]”, under “significantly reduced vs ER7”, the binding result is “binds more weakly”.
Regarding “CCGGTAGGTTGTCTCCCAGGGAGACAACCGGTAGG (double strand) [ER5]”, the binding result (significantly below ER7) is on record as “binds more weakly”.
“CCGGTAGGTTGTCGACCAAAGGTCGACAACCGGTAGG (double strand) [ER7-GA]”: the binding result (significantly below ER7) is reported as “binds more weakly”.
